Where “and” joins values, the source holds several entries; their conditions need not be identical. Equal values may be shown once.
What was measured:
native NMDA receptors [1] = conditions: −80 mV; earlier papers of the authors; cited from earlier work
native NMDA receptors [2] = experiment: Analysis of voltage dependence of NMDA receptor block (Woodhull model with voltage-independent component, Equation (2)); type: cell-based, rat; conditions: for zδ: reanalysis of the authors' earlier voltage dependence data [16],[17]
Method: NMDA receptors were activated with 100 µM NMDA plus 10 µM glycine unless otherwise stated. The percentages of blocking of the steady-state or peak currents by different drug concentrations were measured at −80, −30 or +30 mV holding voltages. Kinetics of transient processes of more than 20 ms duration were approximated with single or double exponential functions. In case of double exponential fitting, the weighted time constant was used.
The voltage dependence of compounds’ action was analyzed with the classical Woodhull model with the addition of a voltage-independent component. […] Kb is the affinity of a drug for the channel, and δ is the electrical depth of the binding site. The δ value reflects the fraction of membrane electric field that the charged blocking molecule crosses on its pathway between the external media and the binding site in the channel.
Thus, we deduced Equation (2), taking it into account and assuming that the binding to the deep and shallow site is independent:(2) B=100−100/(1+C/(Kvd∗exp〖Fzδ/RTV〗)+C/Kvi+(C∗C)/((Kvd∗exp〖Fzδ/RTV〗∗Kvi))
In this equation, Kvd is the affinity of the drug to the deep site, Kvi—the affinity of the drug to the shallow site, and other parameters are the same as in Equation (1).
All experimental data are presented as the mean ± SD estimated from at least four experiments (cells). Significance of the effects was tested with t-tests. Differences were considered significant at p < 0.05. Concentration dependencies were approximated with Hill equation. Voltage dependencies were approximated with Equation (2). […] Approximation error values were taken as the precision measures.

native NMDA receptors [3] = experiment: Whole-cell patch clamp of NMDA plus glycine induced currents in isolated CA1 pyramidal neurons; type: cell-based, rat
Method: The rats were anesthetised with sevoflurane and then decapitated. The brains were brought out quickly and cooled to 2–4 °C. […] All experiments were performed at room temperature.
Vibrodissociation method was used to free CA1 pyramidal neurons from slices. This method allows for isolating cells without enzymatic treatment and keeping them in more native state. Pyramidal cells were isolated from the stratum pyramidale and distinguished from non-pyramidal cells on the basis of pyramidal-like somata and preserved apical dendrites.
To record membrane currents in response to applications of NMDA and glycine, the whole-cell configuration of patch clamp technique was used. Series resistance (<20 MΩ) was compensated by 70–80% and monitored during experiments. Only cells with stable holding currents were used in further analysis. The current signals were amplified using EPC-8 (HEKA Electronics, Lambrecht, Germany), filtered at 5 kHz, sampled, and stored on a personal computer. RSC-200 (BioLogic Science Instruments, Claix, France) perfusion system was used to apply the drugs under computer control. […] The pipettes with resistance of 2–5 MΩ were filled with the following solution (in mM): CsF 100, CsCl 40, NaCl 5, CaCl2 0.5, EGTA 5, HEPES 10 (pH adjusted to 7.2 with CsOH). […] Other reagents were purchased from MedChemExpress (Monmouth Junction, NJ, USA), Sigma (St. Louis, MO, USA), or Tocris Bioscience (Bristol, UK).
NMDA receptors were activated with 100 µM NMDA plus 10 µM glycine unless otherwise stated. […] Kinetics of transient processes of more than 20 ms duration were approximated with single or double exponential functions. In case of double exponential fitting, the weighted time constant was used.

Structure (SMILES)	Hill Coeff. (native NMDA receptors [1])	zδ (native NMDA receptors [2]; Equation (2) fit, zδ free)	further results
N=C(N)c1ccc(-c2cc3ccc(C(=N)N)cc3[nH]2)cc1 [DAPI]	1.2 ± 0.2	0.06 ± 0.70	–
N=C(N)c1ccc(/N=N/Nc2ccc(C(=N)N)cc2)cc1 [Diminazene]	2.0 ± 0.3	–	–
N=C(N)c1ccc(-c2ccc(-c3ccc(C(=N)N)cc3)o2)cc1 [Furamidine]	1.5 ± 0.2	–	–
CCOC(=O)c1ccc(OC(=O)CCCCCNC(=N)N)cc1 [Gabexate]	0.8 ± 0.2	0.4 ± 0.2	–
N=C(N)c1ccc2cc(OC(=O)c3ccc(N=C(N)N)cc3)ccc2c1 [Nafamostat]	1.2 ± 0.2	–	–
N=C(N)c1ccc(OCCCCCOc2ccc(C(=N)N)cc2)cc1 [Pentamidine]	1.1 ± 0.2	1.4 and 1.4 ± 0.1	–
N=C(N)c1ccc2cc(OC(=O)c3ccc(NC4=NCCN4)cc3)ccc2c1 [Sepimostat]	–	–	zδ, peak component (native NMDA receptors [2]; Equation (2) fit, zδ free, peak current, −120 to +30 mV): 0.7 ± 0.2; zδ, steady-state component (native NMDA receptors [2]; Equation (2) fit, zδ free, steady-state current, −120 to +30 mV): 0.6 ± 0.2 and 0.6; δ value (electrical depth of binding site) (native NMDA receptors [2]; from zδ assuming +1 charge): 0.6 ± 0.2; Hill coefficient, peak component (native NMDA receptors [3]; +30 mV, peak): 0.9 ± 0.1; Hill coefficient, steady-state component (native NMDA receptors [3]; +30 mV, steady-state): 0.9 ± 0.1; Hill coefficient, peak component (native NMDA receptors [3]; −80 mV, peak current): 1.1 ± 0.2; Hill coefficient, steady-state component (native NMDA receptors [3]; −80 mV, steady-state current): 0.9 ± 0.1

— publication PMC10649274 (International Journal of Molecular Sciences, 2023)
